Data as given in PubChem BioAssay AID1224826 (NIAID, 2016).
The whole screen tested about 17,000 reagents; this is a random part of them. In the full data, about 1,110 (6.6%) are marked active. 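Active means lowered or raised reporter signal; replicate intensities are raw and not normalised per plate.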 Reagents against one gene are numbered here.

Screen: 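Genes that change LPS-induced Tnf promoter activity in mouse macrophages when knocked down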 (primary screen)
Cell system: RAW264.7 G9 macrophages from mouse bearing reporters for p65 (GFP) and the Tnf promoter (mCherry)
Knock-down reagent: siRNA pool against mouse genes, 100 nM
Time to read-out: 16 h of LPS stimulation, after 2 days of siRNA transfection
Conditions: bacterial lipopolysaccharide (Salmonella minnesota R595), 10 ng/ml
Read-out: 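Nuclear mCherry signal of the Tnf promoter reporter measured by imaging after background removal, scaled to each plate median and turned into robust z-scores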
Reading the numbers: Tnf reporter robust z-score: higher = stronger Tnf promoter reporter signal after LPS; Tnf reporter intensity: higher = stronger Tnf promoter reporter signal
Active means: 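Called active when robust z-score is at most -1.3, matching the median of the Tlr4 knock-down control, or over 3; control wells and wells with under 50 cells never active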
Calls: active = Tnf reporter clearly lowered or raised; inactive = no clear change in Tnf reporter

| gene symbol | pool no. | Tnf reporter robust z-score | fewer than 50 cells in well | Tnf reporter intensity, replicate 1 | Tnf reporter intensity, replicate 2 | outcome |
| --- | --- | --- | --- | --- | --- | --- |
| Cyb5r3 | 1 | 1.41 | enough cells in well | 304 | 343 | inactive |
| Pou3f3 | 1 | 1.09 | enough cells in well | 302 | 294 | inactive |
| Matn2 | 1 | -0.32 | enough cells in well | 180 | 122 | inactive |
| Eno3 | 1 | 1.91 | enough cells in well | 336 | 423 | inactive |
| Coq6 | 1 | 0.02 | enough cells in well | 222 | 140 | inactive |
| Fignl1 | 1 | -0.82 | enough cells in well | 177 | 100 | inactive |
| Mcm3 | 1 | -0.45 | enough cells in well | 250 | 152 | inactive |
| Cacng1 | 1 | 0.54 | enough cells in well | 190 | 214 | inactive |
| Hps4 | 1 | -0.73 | enough cells in well | 173 | 147 | inactive |
| Trrap | 1 | 0.86 | enough cells in well | 231 | 276 | inactive |
| Ephx3 | 1 | -0.23 | enough cells in well | 144 | 148 | inactive |
| Utp20 | 1 | -0.5 | enough cells in well | 125 | 138 | inactive |
| Piwil2 | 1 | 0.56 | enough cells in well | 327 | 198 | inactive |
| Nlrp4b | 1 | -1.11 | enough cells in well | 119 | 90.9 | inactive |
| Atf4 | 1 | -0.86 | enough cells in well | 103 | 115 | inactive |
| Pcgf5 | 1 | 0.25 | enough cells in well | 163 | 186 | inactive |
| Slx1b | 1 | 0.3 | enough cells in well | 250 | 78.1 | inactive |
| Mmp10 | 1 | 0.4 | enough cells in well | 274 | 254 | inactive |
| Naa80 | 1 | -0.13 | enough cells in well | 235 | 211 | inactive |
| Lce1a1 | 1 | 0.09 | enough cells in well | 117 | 89.7 | inactive |
| Cpsf7 | 1 | 0.98 | enough cells in well | 165 | 201 | inactive |
| Hspa8 | 1 | – | fewer than 50 cells per well; well left out of calls | 63 | 55.4 | inactive |
| Abcg4 | 1 | 0.1 | enough cells in well | 235 | 172 | inactive |
| Bcor | 1 | 1.56 | enough cells in well | 160 | 267 | inactive |
| Ubxn6 | 1 | 1.04 | enough cells in well | 133 | 142 | inactive |
| Mcf2 | 1 | -0.06 | enough cells in well | 223 | 230 | inactive |
| Nudt3 | 1 | 2.32 | enough cells in well | 388 | 224 | inactive |
| Or52b3 | 1 | -1.03 | enough cells in well | 85.7 | 74.6 | inactive |
| Or8b56 | 1 | 6.66 | enough cells in well | 492 | 418 | active |
| Pacrgl | 1 | -0.06 | enough cells in well | 157 | 160 | inactive |
| Sfrp4 | 1 | -0.68 | enough cells in well | 229 | 153 | inactive |
| Or10a3 | 1 | -0.73 | enough cells in well | 75.8 | 65.7 | inactive |

Ordered by “Tnf reporter intensity, replicate 2” (descending): some entries from above
| gene symbol | pool no. | Tnf reporter robust z-score | fewer than 50 cells in well | Tnf reporter intensity, replicate 1 | Tnf reporter intensity, replicate 2 | outcome |
| --- | --- | --- | --- | --- | --- | --- |
| Eno3 | 1 | 1.91 | enough cells in well | 336 | 423 | inactive |
| Pou3f3 | 1 | 1.09 | enough cells in well | 302 | 294 | inactive |
| Trrap | 1 | 0.86 | enough cells in well | 231 | 276 | inactive |
| Cacng1 | 1 | 0.54 | enough cells in well | 190 | 214 | inactive |
| Mcm3 | 1 | -0.45 | enough cells in well | 250 | 152 | inactive |
| Hps4 | 1 | -0.73 | enough cells in well | 173 | 147 | inactive |
| Coq6 | 1 | 0.02 | enough cells in well | 222 | 140 | inactive |
| Matn2 | 1 | -0.32 | enough cells in well | 180 | 122 | inactive |
| Fignl1 | 1 | -0.82 | enough cells in well | 177 | 100 | inactive |

Further entries follow.
| gene symbol | pool no. | Tnf reporter robust z-score | fewer than 50 cells in well | Tnf reporter intensity, replicate 1 | Tnf reporter intensity, replicate 2 | outcome |
| --- | --- | --- | --- | --- | --- | --- |
| Ms4a1 | 1 | 0.51 | enough cells in well | 362 | 196 | inactive |
| Krtap19-3 | 1 | 1.63 | enough cells in well | 272 | 221 | inactive |
| Eef1a2 | 1 | -0.31 | enough cells in well | 215 | 196 | inactive |
| Clcnkb | 1 | -0.56 | enough cells in well | 138 | 137 | inactive |
| Skap1 | 1 | 1.49 | enough cells in well | 325 | 213 | inactive |
| Trpc2 | 1 | -0.11 | enough cells in well | 110 | 89.3 | inactive |
| Trmt1 | 1 | -1.49 | enough cells in well | 105 | 71.2 | active |
| Tbkbp1 | 1 | – | fewer than 50 cells per well; well left out of calls | 160 | 68.4 | inactive |
| Grb14 | 1 | 0.24 | enough cells in well | 263 | 267 | inactive |
| Or9k7 | 1 | – | fewer than 50 cells per well; well left out of calls | 23.3 | 127 | inactive |
| Or10x4 | 1 | – | fewer than 50 cells per well; well left out of calls | 103 | 52.1 | inactive |
| Gapvd1 | 1 | 2.23 | enough cells in well | 332 | 106 | inactive |
| Or6c68 | 1 | – | fewer than 50 cells per well; well left out of calls | 117 | 73.2 | inactive |
| Abcc9 | 1 | -0.23 | enough cells in well | 149 | 142 | inactive |
| Litaf | 1 | 1.45 | enough cells in well | 300 | 204 | inactive |
| Hsf3 | 1 | -0.08 | enough cells in well | 188 | 139 | inactive |
| Etaa1 | 1 | -0.6 | enough cells in well | 128 | 117 | inactive |
| Golga1 | 1 | 0.18 | enough cells in well | 261 | 174 | inactive |
| Mllt11 | 1 | 0.94 | enough cells in well | 228 | 216 | inactive |
| Gast | 1 | 0.71 | enough cells in well | 348 | 263 | inactive |
| Zbtb8a | 1 | -0.06 | enough cells in well | 227 | 74.1 | inactive |
| Lingo1 | 1 | 2.59 | enough cells in well | 406 | 233 | inactive |
| Tnip1 | 1 | 0.07 | enough cells in well | 250 | 130 | inactive |
| Vmn1r202 | 1 | 1.67 | enough cells in well | 161 | 160 | inactive |
| Pla2g3 | 1 | -0.82 | enough cells in well | 129 | 97.2 | inactive |
| Upk2 | 1 | 0.42 | enough cells in well | 102 | 102 | inactive |
| G6pc1 | 1 | -0.37 | enough cells in well | 176 | 251 | inactive |
| Tanc2 | 1 | -0.46 | enough cells in well | 156 | 117 | inactive |
| Or4k42 | 1 | 0.19 | enough cells in well | 254 | 152 | inactive |
| Tcp10a | 1 | -0.22 | enough cells in well | 115 | 80.4 | inactive |
| Tcp10a | 2 | – | fewer than 50 cells per well; well left out of calls | 98.3 | 81.1 | inactive |
| Acer1 | 1 | 0.65 | enough cells in well | 212 | 196 | inactive |
| Kif20a | 1 | 0.23 | enough cells in well | 268 | 155 | inactive |
| Alcam | 1 | 0.64 | enough cells in well | 234 | 173 | inactive |
| Psca | 1 | -0.14 | enough cells in well | 135 | 112 | inactive |
| Tcte2 | 1 | 0.09 | enough cells in well | 121 | 95.5 | inactive |
| Or2t46 | 1 | -1.78 | enough cells in well | 76.6 | 45.4 | active |
| Mtbp | 1 | 2 | enough cells in well | 443 | 342 | inactive |
| Fgf9 | 1 | -0.79 | enough cells in well | 168 | 191 | inactive |
| Edil3 | 1 | -0.45 | enough cells in well | 182 | 209 | inactive |
| Dnase2a | 1 | -0.21 | enough cells in well | 222 | 185 | inactive |
| Eif4b | 1 | 0.28 | enough cells in well | 203 | 126 | inactive |
| Chic2 | 1 | -0.6 | enough cells in well | 206 | 156 | inactive |
